One molecule from PMC5661613 can be followed below.

The test deals with T1, PDHA1-Flag (pyruvate dehydrogenase E1 alpha 1 subunit) (UniProt P08559).
T1 sequence: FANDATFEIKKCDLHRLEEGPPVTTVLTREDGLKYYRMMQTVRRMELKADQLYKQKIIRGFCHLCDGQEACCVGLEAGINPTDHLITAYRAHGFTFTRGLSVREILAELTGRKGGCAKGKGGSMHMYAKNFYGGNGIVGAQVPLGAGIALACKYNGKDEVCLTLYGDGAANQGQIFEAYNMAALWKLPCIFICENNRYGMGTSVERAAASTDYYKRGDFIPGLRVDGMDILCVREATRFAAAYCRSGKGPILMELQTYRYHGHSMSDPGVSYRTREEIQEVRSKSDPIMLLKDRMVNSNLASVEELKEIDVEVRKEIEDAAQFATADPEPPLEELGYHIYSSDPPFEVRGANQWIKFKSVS
The experiment in a line: co-IP; PDHA1-Flag and PDHB-myc co-expressed in HeLa or HEK293T cells; lysis in 0.5% NP-40 buffer; PDHA1 immuno-purified on Flag beads, washed three times with 0.1% NP-40 buffer; PDHB detected by myc western.

No constants are given. Whether binding was seen depends on the method and setting. In cells and extracts the contact can be indirect. Some results given as binding are weak or reduced against the parent protein; the word gives no strength. Tags and fused reporters may be left off the sequences shown.

B1: PDHB-myc (pyruvate dehydrogenase E1 beta subunit) (protein, UniProt P11177 31-359)
chain: LQVTVRDAINQGMDEELERDEKVFLLGEEVAQYDGAYKVSRGLWKKYGDKRIIDTPISEMGFAGIAVGAAMAGLRPICEFMTFNFSMQAIDQVINSAAKTYYMSGGLQPVPIVFRGPNGASAGVAAQHSQCFAAWYGHCPGLKVVSPWNSEDAKGLIKSAIRDNNPVVVLENELMYGVPFEFPPEAQSKDFLIPIGKAKIERQGTHITVVSHSRPVGHCLEAAAVLSKEGVECEVINMRTIRPMDMETIEASVMKTNHLVTVEGGWPQFGVGAEICARIMEGPAFNFLDAPAVRVTGADVPMPYAKILEDNSIPQVKDIIFAIKKTLNI
On to B1, for which the binding entry is “binds”.
